{"source": "PubChem BioAssay AID1259254 (NCATS, 2017)", "purpose": "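Finding genes that stop cells copying their DNA twice in one cycle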 (primary screen)", "cells": "human HCT116 colorectal cancer cells", "reagents": "single siRNA against human genes", "time to read-out": "3 days", "measurement": "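Imaged Hoechst DNA stain sorts each cell into a cycle phase by DNA amount; per plate, G2 fraction set to 0% for non-targeting and 100% for GMNN siRNA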", "direction": "G2 robust z-score: higher = more G2 cells, more excess DNA replication", "rule for the call": "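An siRNA counts as active if its G2 robust z-score lies at least 5 MADs above the screen median; here such calls match roughly 38% of GMNN control or more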", "note": "The whole screen tested about 59,000 reagents; this is a part drawn at random. Of all reagents, about 1,550 (2.6%) got an active call. 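G2 share is only a proxy for re-replication; each gene was hit by three separate siRNAs, and active genes were retested.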 A number with no mark means an inactive call. The numbers tell different reagents against one gene apart. Not all columns of the deposit are shown. Reagent sequences are not shown. Not given: the amount of reagent."}
{"gene symbol": "PURB", "siRNA no.": 1, "G2 robust z-score": -0.453}
{"gene symbol": "PURB", "siRNA no.": 2, "G2 robust z-score": 0.104}
{"gene symbol": "PURB", "siRNA no.": 3, "G2 robust z-score": 0.22}
{"gene symbol": "UGT3A1", "siRNA no.": 1, "G2 robust z-score": 1.2}
{"gene symbol": "UGT3A1", "siRNA no.": 2, "G2 robust z-score": 0.38}
{"gene symbol": "UGT3A1", "siRNA no.": 3, "G2 robust z-score": 2.64}

Records listed so far whose target name begins with U or u:
{"gene symbol": "UGT3A1", "siRNA no.": 1, "G2 robust z-score": 1.2}
{"gene symbol": "UGT3A1", "siRNA no.": 2, "G2 robust z-score": 0.38}
{"gene symbol": "UGT3A1", "siRNA no.": 3, "G2 robust z-score": 2.64}

Additional entries follow:
{"gene symbol": "SPRY2", "siRNA no.": 1, "G2 robust z-score": -0.927}
{"gene symbol": "SPRY2", "siRNA no.": 2, "G2 robust z-score": 0.693}
{"gene symbol": "SPRY2", "siRNA no.": 3, "G2 robust z-score": -1.14}
{"gene symbol": "DSCR9", "siRNA no.": 1, "G2 robust z-score": -0.73}
{"gene symbol": "DSCR9", "siRNA no.": 2, "G2 robust z-score": 1.27}
{"gene symbol": "DSCR9", "siRNA no.": 3, "G2 robust z-score": 1.67}
